In PMC8278082:
No constants are given. Whether binding was seen depends on the method and setting. Binding seen in cells or lysates may run through a third protein. Some entries that bind do so weakly or less than the wild type. For some assays here: Sequences can lack the tags named with a protein.

How the values were obtained:
[1] = target: T1, IκB kinase α (IKKα), endogenous (human (endogenous in CAL27 and SCC15)), O15111; assay: co-IP; endogenous proteins in CAL27 or SCC15 lysates (weak-potency RIPA buffer), pre-cleared, antibody and protein A/G beads overnight at 4°C, Western blot; results and legend say anti-IKKα antibody, methods say anti-Naa10p or control IgG; conditions: remark: other sources report otherwise
T1 chain: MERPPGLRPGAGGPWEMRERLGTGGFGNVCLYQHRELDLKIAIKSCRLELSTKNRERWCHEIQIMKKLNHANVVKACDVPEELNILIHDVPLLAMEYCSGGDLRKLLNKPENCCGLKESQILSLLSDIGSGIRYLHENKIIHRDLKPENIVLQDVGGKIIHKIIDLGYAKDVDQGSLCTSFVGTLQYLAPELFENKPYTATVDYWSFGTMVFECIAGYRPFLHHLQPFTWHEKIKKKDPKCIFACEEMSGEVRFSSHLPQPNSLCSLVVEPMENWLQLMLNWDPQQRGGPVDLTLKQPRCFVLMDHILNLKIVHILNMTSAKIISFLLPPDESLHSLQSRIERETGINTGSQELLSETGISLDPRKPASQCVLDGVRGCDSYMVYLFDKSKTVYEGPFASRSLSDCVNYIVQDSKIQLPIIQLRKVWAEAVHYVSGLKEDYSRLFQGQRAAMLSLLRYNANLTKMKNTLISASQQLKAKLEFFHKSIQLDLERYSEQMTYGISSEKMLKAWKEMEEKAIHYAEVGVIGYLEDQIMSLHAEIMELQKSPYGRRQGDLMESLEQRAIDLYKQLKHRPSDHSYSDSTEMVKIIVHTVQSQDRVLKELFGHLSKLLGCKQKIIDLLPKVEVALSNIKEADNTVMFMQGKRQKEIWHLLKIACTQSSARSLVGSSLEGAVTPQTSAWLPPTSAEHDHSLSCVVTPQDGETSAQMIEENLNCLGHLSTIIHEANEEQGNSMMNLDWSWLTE

GST-Naa10p, P41227 = target: T2, GST-Naa10p, P41227; assay: pull-down; GST fusion protein on GSH beads incubated with lysates of CAL27 cells transfected with His-IKKα, 4°C, 12 hours; Western blot; only the target purified; conditions: remark: other sources report otherwise
T2 chain: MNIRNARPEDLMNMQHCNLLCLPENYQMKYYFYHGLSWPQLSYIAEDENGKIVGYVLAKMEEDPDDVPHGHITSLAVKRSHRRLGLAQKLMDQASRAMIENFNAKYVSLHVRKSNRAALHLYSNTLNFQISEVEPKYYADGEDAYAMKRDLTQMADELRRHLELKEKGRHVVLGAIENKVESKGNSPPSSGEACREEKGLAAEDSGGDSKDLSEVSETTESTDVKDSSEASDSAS

B1: N-α-acetyltransferase 10 protein (Naa10p), endogenous, P41227 1-235 (protein)
chain: T2 chain
binding [1]: binds

B2: His-IKKα, O15111 1-745 (protein)
chain: T1 chain
binding (GST-Naa10p, P41227): binds
